Publication PMC6639074

Protein sequences, listed by entry. Tags and fused reporters are not part of them. Lines headed by an entry give the natural chain unless they say otherwise; changes in a name come on top. Chains listed by the source or under a name are the forms on record and can include a tag or linker.
N-Ras(G12D)-BirA*-HA-MAO (P01111, form named): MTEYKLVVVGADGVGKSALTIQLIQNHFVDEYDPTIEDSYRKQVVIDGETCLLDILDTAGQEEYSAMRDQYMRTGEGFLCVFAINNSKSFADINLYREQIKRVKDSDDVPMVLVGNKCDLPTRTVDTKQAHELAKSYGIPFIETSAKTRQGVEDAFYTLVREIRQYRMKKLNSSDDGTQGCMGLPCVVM
N-Ras(S17N)-BirA*-HA-MAO (P01111, form named): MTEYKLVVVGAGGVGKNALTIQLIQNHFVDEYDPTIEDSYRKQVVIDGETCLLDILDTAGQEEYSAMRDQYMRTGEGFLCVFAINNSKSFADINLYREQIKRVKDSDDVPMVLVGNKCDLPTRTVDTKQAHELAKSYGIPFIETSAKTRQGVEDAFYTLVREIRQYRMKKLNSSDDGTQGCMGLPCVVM
UniProt P60953: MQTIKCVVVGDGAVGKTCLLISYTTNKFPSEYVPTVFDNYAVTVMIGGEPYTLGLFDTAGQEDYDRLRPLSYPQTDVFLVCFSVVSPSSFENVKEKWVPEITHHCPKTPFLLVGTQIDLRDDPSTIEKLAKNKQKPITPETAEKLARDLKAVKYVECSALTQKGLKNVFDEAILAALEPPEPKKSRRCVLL
UniProt P61026: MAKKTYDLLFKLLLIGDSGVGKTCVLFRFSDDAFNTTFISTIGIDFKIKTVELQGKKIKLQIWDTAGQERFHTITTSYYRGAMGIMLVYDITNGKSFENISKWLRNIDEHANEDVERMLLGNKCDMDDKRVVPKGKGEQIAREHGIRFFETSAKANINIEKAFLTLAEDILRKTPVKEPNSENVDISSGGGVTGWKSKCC
UniProt P61006: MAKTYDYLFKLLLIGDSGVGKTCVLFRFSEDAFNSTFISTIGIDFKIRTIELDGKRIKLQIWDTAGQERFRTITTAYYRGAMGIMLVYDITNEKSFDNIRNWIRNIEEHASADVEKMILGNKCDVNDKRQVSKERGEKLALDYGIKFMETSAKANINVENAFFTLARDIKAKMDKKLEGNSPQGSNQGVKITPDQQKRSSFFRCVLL

Tests used:
Assay in all cases: proximity labelling; MitoID: GTPase-BirA*-HA-MAO chimera on mitochondria of transiently transfected HEK293T cells, 50 uM biotin 18 h, streptavidin beads, mass spectrometry, biological triplicates; hits by WD scores and volcano plots against the GDP-locked forms
[1] = target: N-Ras(G12D)-BirA*-HA-MAO (human) (UniProt P01111)
[2] = target: N-Ras(S17N)-BirA*-HA-MAO (human) (UniProt P01111)
[3] = target: Cdc42(G12V)-BirA*-HA-MAO (human) (UniProt P60953)
[4] = target: Rab10(Q68L)-BirA*-HA-MAO (human) (UniProt P61026)
[5] = target: Rab8A(Q67L)-BirA*-HA-MAO (human) (UniProt P61006)

B1: RAPGEF2 (protein, UniProt Q9Y4G8 1-1499)
chain: MKPLAIPANHGVMGQQEKHSLPADFTKLHLTDSLHPQVTHVSSSHSGCSITSDSGSSSLSDIYQATESEAGDMDLSGLPETAVDSEDDDDEEDIERASDPLMSRDIVRDCLEKDPIDRTDDDIEQLLEFMHQLPAFANMTMSVRRELCAVMVFAVVERAGTIVLNDGEELDSWSVILNGSVEVTYPDGKAEILCMGNSFGVSPTMDKEYMKGVMRTKVDDCQFVCIAQQDYCRILNQVEKNMQKVEEEGEIVMVKEHRELDRTGTRKGHIVIKGTSERLTMHLVEEHSVVDPTFIEDFLLTYRTFLSSPMEVGKKLLEWFNDPSLRDKVTRVVLLWVNNHFNDFEGDPAMTRFLEEFENNLEREKMGGHLRLLNIACAAKAKRRLMTLTKPSREAPLPFILLGGSEKGFGIFVDSVDSGSKATEAGLKRGDQILEVNGQNFENIQLSKAMEILRNNTHLSITVKTNLFVFKELLTRLSEEKRNGAPHLPKIGDIKKASRYSIPDLAVDVEQVIGLEKVNKKSKANTVGGRNKLKKILDKTRISILPQKPYNDIGIGQSQDDSIVGLRQTKHIPTALPVSGTLSSSNPDLLQSHHRILDFSATPDLPDQVLRVFKADQQSRYIMISKDTTAKEVVIQAIREFAVTATPDQYSLCEVSVTPEGVIKQRRLPDQLSKLADRIQLSGRYYLKNNMETETLCSDEDAQELLRESQISLLQLSTVEVATQLSMRNFELFRNIEPTEYIDDLFKLRSKTSCANLKRFEEVINQETFWVASEILRETNQLKRMKIIKHFIKIALHCRECKNFNSMFAIISGLNLAPVARLRTTWEKLPNKYEKLFQDLQDLFDPSRNMAKYRNVLNSQNLQPPIIPLFPVIKKDLTFLHEGNDSKVDGLVNFEKLRMIAKEIRHVGRMASVNMDPALMFRTRKKKWRSLGSLSQGSTNATVLDVAQTGGHKKRVRRSSFLNAKKLYEDAQMARKVKQYLSNLELEMDEESLQTLSLQCEPATNTLPKNPGDKKPVKSETSPVAPRAGSQQKAQSLPQPQQQPPPAHKINQGLQVPAVSLYPSRKKVPVKDLPPFGINSPQALKKILSLSEEGSLERHKKQAEDTISNASSQLSSPPTSPQSSPRKGYTLAPSGTVDNFSDSGHSEISSRSSIVSNSSFDSVPVSLHDERRQRHSVSIVETNLGMGRMERRTMIEPDQYSLGSYAPMSEGRGLYATATVISSPSTEELSQDQGDRASLDAADSGRGSWTSCSSGSHDNIQTIQHQRSWETLPFGHTHFDYSGDPAGLWASSSHMDQIMFSDHSTKYNRQNQSRESLEQAQSRASWASSTGYWGEDSEGDTGTIKRRGGKDVSIEAESSSLTSVTTEETKPVPMPAHIAVASSTTKGLIARKEGRYREPPPTPPGYIGIPITDFPEGHSHPARKPPDYNVALQRSRMVARSSDTAGPSSVQQPHGHPTSSRPVNKPQWHKPNESDPRLAPYQSQGFSTEEDEDEQVSAV
binding [1]: binds

B2: RAP1GDS1 (protein, UniProt P52306 1-607)
chain: MDNLSDTLKKLKITAVDKTEDSLEGCLDCLLQALAQNNTETSEKIQASGILQLFASLLTPQSSCKAKVANIIAEVAKNEFMRIPCVDAGLISPLVQLLNSKDQEVLLQTGRALGNICYDSHEGRSAVDQAGGAQIVIDHLRSLCSITDPANEKLLTVFCGMLMNYSNENDSLQAQLINMGVIPTLVKLLGIHCQNAALTEMCLVAFGNLAELESSKEQFASTNIAEELVKLFKKQIEHDKREMIFEVLAPLAENDAIKLQLVEAGLVECLLEIVQQKVDSDKEDDITELKTGSDLMVLLLLGDESMQKLFEGGKGSVFQRVLSWIPSNNHQLQLAGALAIANFARNDANCIHMVDNGIVEKLMDLLDRHVEDGNVTVQHAALSALRNLAIPVINKAKMLSAGVTEAVLKFLKSEMPPVQFKLLGTLRMLIDAQAEAAEQLGKNVKLVERLVEWCEAKDHAGVMGESNRLLSALIRHSKSKDVIKTIVQSGGIKHLVTMATSEHVIMQNEALVALALIAALELGTAEKDLESAKLVQILHRLLADERSAPEIKYNSMVLICALMGSECLHKEVQDLAFLDVVSKLRSHENKSVAQQASLTEQRLTVES
binding [2]: binds

B3: PLEKHG4 (protein, UniProt Q58EX7 1-1191)
chain: MERPLENGDESPDSQGHATDWRFAVCSFRDAWEEEEPASQMHVKDPGPPRPPAGATQDEELQGSPLSRKFQLPPAADESGDAQRGTVESSSVLSEGPGPSGVESLLCPMSSHLSLAQGESDTPGVGLVGDPGPSRAMPSGLSPGALDSDPVGLGDPLSEISKLLEAAPSGSGLPKPADCLLAQDLCWELLASGMATLPGTRDVQGRAVLLLCAHSPAWLQSECSSQELIRLLLYLRSIPRPEVQALGLTVLVDARICAPSSSLFSGLSQLQEAAPGAVYQVLLVGSTLLKEVPSGLQLEQLPSQSLLTHIPTAGLPTSLGGGLPYCHQAWLDFRRRLEALLQNCQAACALLQGAIESVKAVPQPMEPGEVGQLLQQTEVLMQQVLDSPWLAWLQCQGGRELTWLKQEVPEVTLSPDYRTAMDKADELYDRVDGLLHQLTLQSNQRIQALELVQTLEARESGLHQIEVWLQQVGWPALEEAGEPSLDMLLQAQGSFQELYQVAQEQVRQGEKFLQPLTGWEAAELDPPGARFLALRAQLTEFSRALAQRCQRLADAERLFQLFREALTWAEEGQRVLAELEQERPGVVLQQLQLHWTRHPDLPPAHFRKMWALATGLGSEAIRQECRWAWARCQDTWLALDQKLEASLKLPPVGSTASLCVSQVPAAPAHPPLRKAYSFDRNLGQSLSEPACHCHHAATIAACRRPEAGGGALPQASPTVPPPGSSDPRSLNRLQLVLAEMVATEREYVRALEYTMENYFPELDRPDVPQGLRGQRAHLFGNLEKLRDFHCHFFLRELEACTRHPPRVAYAFLRHRVQFGMYALYSKNKPRSDALMSSYGHTFFKDKQQALGDHLDLASYLLKPIQRMGKYALLLQELARACGGPTQELSALREAQSLVHFQLRHGNDLLAMDAIQGCDVNLKEQGQLVRQDEFVVRTGRHKSVRRIFLFEELLLFSKPRHGPTGVDTFAYKRSFKMADLGLTECCGNSNLRFEIWFRRRKARDTFVLQASSLAIKQAWTADISHLLWRQAVHNKEVRMAEMVSMGVGNKAFRDIAPSEEAINDRTVNYVLKCREVRSRASIAVAPFDHDSLYLGASNSLPGDPASCSVLGSLNLHLYRDPALLGLRCPLYPSFPEEAALEAEAELGGQPSLTAEDSEISSQCPSASGSSGSDSSCVSGQALGRGLEDLPCV
binding [3]: binds

B4: ARHGEF10 (protein, UniProt O15013 1-1369)
chain: MRPPGFLSRAPSLNRAERGIWSCSMDQREPLPPAPAENEMKYDTNNNEEEEGEQFDFDSGDEIPEADRQAPSAPETGGAGASEAPAPTGGEDGAGAETTPVAEPTKLVLPMKVNPYSVIDITPFQEDQPPTPVPSAEEENVGLHVPCGYLVPVPCGYAVPSNLPLLLPAYSSPVIICATSLDEEAETPEVTEDRQPNSLSSEEPPTSEDQVGREDSALARWAADPANTAWMENPEEAIYDDVPRENSDSEPDEMIYDDVENGDEGGNSSLEYGWSSSEFESYEEQSDSECKNGIPRSFLRSNHKKQLSHDLTRLKEHYEKKMRDLMASTVGVVEIQQLRQKHELKMQKLVKAAKDGTKDGLERTRAAVKRGRSFIRTKSLIAQDHRSSLEEEQNLFIDVDCKHPEAILTPMPEGLSQQQVVRRYILGSVVDSEKNYVDALKRILEQYEKPLSEMEPKVLSERKLKTVFYRVKEILQCHSLFQIALASRVSEWDSVEMIGDVFVASFSKSMVLDAYSEYVNNFSTAVAVLKKTCATKPAFLEFLKQEQEASPDRTTLYSLMMKPIQRFPQFILLLQDMLKNTSKGHPDRLPLQMALTELETLAEKLNERKRDADQRCEVKQIAKAINERYLNKLLSSGSRYLIRSDDMIETVYNDRGEIVKTKERRVFMLNDVLMCATVSSRPSHDSRVMSSQRYLLKWSVPLGHVDAIEYGSSAGTGEHSRHLAVHPPESLAVVANAKPNKVYMGPGQLYQDLQNLLHDLNVIGQITQLIGNLKGNYQNLNQSVAHDWTSGLQRLILKKEDEIRAADCCRIQLQLPGKQDKSGRPTFFTAVFNTFTPAIKESWVNSLQMAKLALEEENHMGWFCVEDDGNHIKKEKHPLLVGHMPVMVAKQQEFKIECAAYNPEPYLNNESQPDSFSTAHGFLWIGSCTHQMGQIAIVSFQNSTPKVIECFNVESRILCMLYVPVEEKRREPGAPPDPETPAVRASDVPTICVGTEEGSISIYKSSQGSKKVRLQHFFTPEKSTVMSLACTSQSLYAGLVNGAVASYARAPDGSWDSEPQKVIKLGVLPVRSLLMMEDTLWAASGGQVFIISVETHAVEGQLEAHQEEGMVISHMAVSGVGIWIAFTSGSTLRLFHTETLKHLQDINIATPVHNMLPGHQRLSVTSLLVCHGLLMVGTSLGVLVALPVPRLQGIPKVTGRGMVSYHAHNSPVKFIVLATALHEKDKDKSRDSLAPGPEPQDEDQKDALPSGGAGSSLSQGDPDAAIWLGDSLGSMTQKSDLSSSSGSLSLSHGSSSLEHRSEDSTIYDLLKDPVSLRSKARRAKKAKASSALVVCGGQGHRRVHRKARQPHQEELAPTVMVWQIPLLNI
binding [4]: binds
binding [5]: binds

No constants are given. Whether binding was seen depends on the method and setting. In cells and extracts the contact can be indirect. These calls come from enrichment with a bait or labelling near it, and not all partners need be listed.
